Square brackets hold non-standard residues; d marks the D form. Peptide text beside a SMILES is read from it. pGlu = O=C1CC[C@@H](C(=O)O)N1
Assay: Endogenous capped peptide levels in mouse plasma by LC-MS

CC[C@H](C)[C@H](NC(=O)CNC(=O)[C@H](Cc1c[nH]c2ccccc12)NC(=O)[C@H](CO)NC(=O)[C@H](Cc1c[nH]cn1)NC(=O)[C@H](CO)NC(=O)[C@H](CCCCN)NC(=O)[C@@H]1CCCN1C(=O)[C@H](CC(C)C)NC(=O)[C@H](CC(C)C)NC(=O)[C@H](CC(C)C)NC(=O)[C@@H]1CCC(=O)N1)C(=O)N[C@H](C(=O)N[C@@H](CC(C)C)C(=O)N1CCC[C@H]1C(=O)N[C@@H](CC(C)C)C(=O)NCC(=O)N[C@@H](CCC(=O)O)C(=O)N[C@@H](CC(C)C)C(=O)N[C@@H](CCC(=O)O)C(N)=O)C(C)C [CAP-CSF1] ([pGlu]LLLPKSHSWGIVLPLGELE-NH2)
endogenous plasma level in the other comparisons (fasting, HFD, 6AM/6PM, old/young, run/sedentary): unchanged

CC(C)[C@H](NC(=O)[C@@H]1CCC(=O)N1)C(=O)N[C@@H](CCC(=O)O)C(=O)N[C@@H](C)C(N)=O [CAP-VGF, pGlu-VEA-NH2] ([pGlu]VEA-NH2)
induction of endogenous plasma level under nutritional stressors (fasting and high fat diet feeding, N=3/group, LC-MS): > 3 fold

From PMC10274650 (bioRxiv, 2023)
